Measurements published in PubChem BioAssay AID1508600 (Functional Genomics Laboratory (NCATS/FGL), 2020).
Out of some 53,000 sequences screened, about 3,700 (7%) were called active.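 The calls were made as follows: active = gene knockdowns whose robust z-score for IL-1 alpha signal is at least 2 or at most -2, so actives lie on both sides; inactive = the rest.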 The list shows a part of the results.

Test: Components of the Cytosolic LPS Sensing Pathway: Gene Identification via Genome-wide siRNA Screen;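 also: robust z of the log signal after scaling to non-targeting control siRNA wells of the plate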
Conditions: RAW264.7 macrophages, IL-1a HTRF, actives lie on both sides, screened at 100 nM (by protocol), cells primed 5 h with Pam3CSK4 first
Method in brief: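 IL-1a HTRF of supernatants after 24 hour LipidA transfection of Pam3CSK4-primed (5 hours) RAW264.7 cells, 48h post-siRNA transfection (100 nM). Scores: percent of plate negative-control median, then log-based robust z-score.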

Row | Sequence | z-score
1 | GCUUACCAAGUGAACACACTT against Mrpl12 | inactive: 0.906
2 | GGCAAGGCUACUACUUGCATT against Fgf14 | inactive: -0.117
3 | GGUGACGUAAUACGUUUCUTT against Lrrc59 | inactive: -0.141
4 | CCGGCUAAGAAAGACAAUUTT against Dync1li1 | inactive: -0.483
5 | CGGCGAUGAGAUUUUCCAUTT against H2-Ea | inactive: 1.35
6 | CGAUGGUGGUUCUUAUUUUTT against Otx1 | inactive: 1.5
7 | CCCGCUUUUUUUUCUGGACTT against Ndufa8 | inactive: 1.11
8 | GGGAGUUGUAGUAUUAGUATT against Zfp94 | inactive: -1.19
9 | GGGCUUCUGCUUUUACUACTT against Ppm1j | inactive: 1.9
10 | GGUGCUUUGACCUAUAUCUTT against Fdxacb1 | inactive: 0.578
11 | CCAACCGUUUGCUACUCUUTT against Gtpbp6 | inactive: 1.54
12 | GGUCAUCAGUGAUCAGUCATT against Mre11a | inactive: -1.33
13 | CGACUAAGGAUGAAAAGCATT against Apbb1ip | active: -3.04
14 | AACCGAACUGAUAAGAACUTT against Bag5 | inactive: 1.05
15 | GCUAACUUAGAUAUCCAGGTT against Abtb2 | inactive: 0.125
16 | GCACCGAAUGCACAAUCUCTT against Tmem222 | inactive: 0.365
17 | CCACCAGAUACAGGAUCUATT against Brinp2 | inactive: 1.48
18 | GGAGUUCCUCAAGAAUUUUTT against Arpc4 | inactive: -1.39
19 | GGGUAAAAUCAGUGAACCUTT against Smap2 | inactive: -0.925
20 | GGCUUUCUUUGUCUUCUCCTT against Adcy3 | inactive: -0.936
21 | GCUUUAAGUCGUAAUCUAGTT against Ank | inactive: 1.32
22 | GGUGUGCUGAAAUUUCAAATT against Themis | inactive: 1.7

Row | Sequence | z-score
23 | GCUAUUUCUGCCUUUAGUCTT against Scamp5 | inactive: -0.0682
24 | GGCCUAUGAAGUACUAUCUTT against Dnajb2 | inactive: -0.181
25 | GACCUUGGUUAUUCUACAGTT against Olfr1087 | inactive: -1.14
26 | CCUUCCUUUACCGAUACUCTT against Dennd4b | inactive: -0.21
27 | GGUGCUAAAGGAGCUUCUGTT against Commd4 | inactive: 0.00328
28 | CCCAGAAUAGAGGAGAACATT against 4933427D14Rik | inactive: -0.918
29 | GGUGAAAAAAACAGGAUCCTT against Wnt11 | inactive: 0.28
30 | GGUGGCAAAGUGGUGAUCCTT against Fabp7 | active: 2.05
31 | CCACUGACAUUCCUAUUAUTT against Capn6 | inactive: -0.0642
32 | GGACAUGAGGCUUCUGAGATT against Tpsb2 | inactive: 1.22
33 | CCGUGGUGCAAGCUUACAUTT against Atp2b4 | inactive: 0.616
34 | GGCCUAAAUGUGGAUUUUGTT against Phf6 | inactive: -1.98
35 | GGAAAAGGUGUCUUCCGUGTT against Crybb2 | inactive: 0.2
36 | GGGCUCACACAAAUAAGAGTT against Tmem88 | inactive: -0.403
37 | GGUUAUUUCUCUCUCCCUATT against Creld1 | inactive: 0.524
38 | GGACCUGAAUUCCACUCCUTT against Socs1 | inactive: -0.147
39 | CCGAAUGGAAUACCAAAUUTT against Cst8 | inactive: 1.7
40 | GGCAAUGGGAAAAUCGUGUTT against Gp5 | inactive: 1.51
41 | GGAGUCCUUUCGUUCUAUCTT against Rab2a | inactive: -0.319
42 | GGUUGUGCAACACAGCUCUTT against Olfr218 | active: -2.31
43 | GGGACUGUACAACCACUCUTT against En1 | inactive: -0.93
44 | GGCUUCUUCCUCGUCUUUGTT against Leprot | inactive: -0.876

Row | Sequence | z-score
45 | GGAAGUGUGCUUUCUUUCCTT against Triqk | inactive: 0.692
46 | GCCCUAGGAGGAACUGAGUTT against Olfr458 | active: -2.54
47 | GGUAUCCAUGUUAUGCUGUTT against Cyp4a12a | inactive: -0.299
48 | GGGUUUUUGUUAGAUGUUATT against Rab3b | inactive: -1.57
49 | GCACGAAUCAUUGUUCAAATT against Chmp7 | inactive: 0.939
50 | GGAAGCUGUUUGAACUCGCTT against Cuedc1 | inactive: -0.243
51 | GGAGGUAAUUACAUAAUGGTT against 9930022D16Rik | inactive: 0.165
52 | GGAAACUUCUUCCCGGUUGTT against Gsdmc | inactive: 1.16
53 | GCCAUUGUGACUGGAGACATT against Olfr804 | inactive: -1.55
54 | CCGUUGACCUGAAAAGGAATT against Clic4 | inactive: -0.0288
55 | GGAAGUUUGCUCAAUCUCATT against Jarid2 | inactive: 1.12
56 | GGAUCUUCCUGGAUGCCAATT against Hps1 | active: -2.61
57 | GGCUAGCAUCACAUGACUUTT against Tmem65 | inactive: -1.71
58 | GGACUUUCAGUUAUAUAGGTT against Ogfod3 | inactive: 0.0701
59 | CCUCCUCUAUACAAACAUGTT against Hcar2 | inactive: 0.364
60 | GCAAUCUAUAAGAGGUACATT against Axin2 | inactive: 1.79
61 | GGAACCAAUCUGUCUCUCCTT against Cbfb | active: -2.07
62 | GGACUUGUGAUUCAAGCAUTT against Rad23b | inactive: 0.525
63 | GGAAGGGAUGCUCAUAGUATT against Hgfac | inactive: -0.0314
64 | CGGUGUUGGUAAAUGUCACTT against Olfr1427 | inactive: -0.93
65 | GCGGCAAUAUAAGCUACGUTT against Fbln7 | inactive: -1.17
66 | GGUCGCUGGAGACCUUAGUTT against Hjurp | inactive: -1.88

Looked up one by one from the list above:
Row | Sequence | z-score
53 | GCCAUUGUGACUGGAGACATT against Olfr804 | inactive: -1.55
60 | GCAAUCUAUAAGAGGUACATT against Axin2 | inactive: 1.79
50 | GGAAGCUGUUUGAACUCGCTT against Cuedc1 | inactive: -0.243
47 | GGUAUCCAUGUUAUGCUGUTT against Cyp4a12a | inactive: -0.299

Remaining list, next part.

Row | Sequence | z-score
67 | GGGAAGAGCCAUCUCUUUUTT against Olfr140 | inactive: 0.0521
68 | GGAGAUAAUGAAAACUGCUTT against Cst13 | inactive: 0.774
69 | GGGUUCAAAAGCCCAUAUUTT against Gm6787 | inactive: 0.206
70 | GGGCUUAAUGGUAAAAUGATT against Slc40a1 | inactive: 0.292
71 | GGAUACGAUCCAGUGUGCCTT against Lyzl4 | inactive: 1.04
72 | GCCAUGAUGCAUUAUGUAUTT against Haglr | inactive: -0.331
73 | GGCUCUUAAUUGACUUUGATT against Cdk16 | inactive: -1.15
74 | GGAGUGUAAUAACUUCUUATT against Washc5 | inactive: 0.202
75 | GCCUCUAGAAUGUAUGGAGTT against Wdr47 | inactive: 0.817
76 | GGCCAUUGCUGGUUCUGCATT against 4930412M03Rik | inactive: -0.957
77 | GGAGGACAUUGAGAAGGAATT against Tnni3 | inactive: 0.468
78 | CCAUUCUUAGUUCACUAUATT against Rgcc | active: -2.55
79 | GGUGGAAGAGGUCAAAUAATT against Denr | inactive: 1.05
80 | GGCUCUACUGGUGAAGAGATT against Zfp459 | inactive: 0.804
81 | GGGAACAGAAGUCAAGAGATT against Bex4 | inactive: 0.0293
82 | GGGCCUGGAAAACAUUGACTT against Ndufa1 | inactive: -0.316
83 | GCGAUUCUGUAAAGAGCGCTT against Nme1 | inactive: 1.9
84 | GGACACUUUCUCAUAUCAUTT against Abca9 | active: 2.06
85 | CCGUACAUAUGGUGAUCCATT against Rtn1 | inactive: -0.162
86 | GCAUGAUAACAGCACUAGGTT against Serpinb3c | inactive: -0.446
87 | GGUAAAUCAGCCAUAGUUUTT against Tafa3 | inactive: 1.53
88 | GGUCAUCAUGUCCAUCCGATT against Rpl10 | inactive: 0.319

An excerpt of these results, as labelled records:
GCCAUGAUGCAUUAUGUAUTT against Haglr
  z-score: inactive: -0.331
GGCUCUUAAUUGACUUUGATT against Cdk16
  z-score: inactive: -1.15
GGAGGACAUUGAGAAGGAATT against Tnni3
  z-score: inactive: 0.468
CCAUUCUUAGUUCACUAUATT against Rgcc
  z-score: active: -2.55

(further entries)

Row | Sequence | z-score
89 | GGACAUUGAAGCCAUGGAUTT against Nsf | inactive: -0.0436
90 | CCCAUUAAGGUAUAAUAUCTT against Olfr855 | inactive: -0.301
91 | GGUCCUUAGCUGAGUCAUUTT against Tmem254a | inactive: 0.643
92 | CCCUAAUAGGUCAAUAAAGTT against Vmn1r71 | inactive: -0.0066
93 | AACUGUACAUUGAAGCAGATT against Cstf3 | inactive: 0.391
94 | GGAGCCUGAAUGCUGUAUUTT against Fam24a | inactive: -0.562
95 | GGGCAGUCAUAAAGAUACATT against Olfr131 | inactive: -0.252
96 | GCUGUUUUGUCUCCAGCCCTT against Zbtb20 | inactive: -0.118
97 | GCCAUCAAAAUCUCACAAGTT against Ate1 | inactive: -0.484
98 | GGAUGUGCACGAAGGACAGTT against Cdh2 | active: 2.09
99 | GUGCAGAUAUCUUUAGCAATT against Olfr159 | inactive: -0.958
100 | GGUGUUCAUUACUUUUGAGTT against Irak1bp1 | inactive: -1.37
101 | GGAUUUGAGAGCCAAUUGUTT against Abo | inactive: -0.0189
102 | GGUUAUUUUUGAUGAGACCTT against Ascc2 | inactive: -0.0563
103 | GGGCAUUUAGAAAUCUUGATT against Prkar2a | inactive: -0.871
104 | GCCGUAUGGAUGUAAAUUATT against D130040H23Rik | inactive: -0.285
105 | GGUGCUGGAGAAGAACAUGTT against Map2k3 | inactive: 1.51
106 | GGGACUGGAAACACACACGTT against Etos1 | inactive: -1.05
107 | GCUAACCGAGUUAGUGAGUTT against Lrsam1 | inactive: -0.49
